Measurements: PubChem BioAssay AID220 (DTP/NCI, 2004)
The list shows only some results of the screen, not a fair sample: its compounds were picked by chemical class. Not every dose and run of a compound is shown. T/C is the treated group as % of the vehicle group. Schedule codes are those of the source, taken here to give the interval after Q, in days (D) or hours (H), and the number of doses after X. Some entries were tested several times; the results are listed from low to high. Some entries show no survivor count and are marked so; the dose need not have been tolerated. Some T/C values are followed by the survivors on the day toxicity was checked; where neither a count nor a note follows, no animal had died by that day. Some T/C values are negative: the treated tumours shrank. Some entries give survivors of the animals treated and no T/C: the source holds a T/C of zero for them, seemingly a mark for toxic or unscored doses. Survivors were counted at the toxicity check; its day is shown where the source gives one, and later deaths do not show.

Tested on: CD8F1 mice, subcutaneous mammary adenocarcinoma, T/C%
Assay: NCI In Vivo Anticancer Drug Screen. Data for tumor model Mammary Adenocarcinoma CD8F1 (subcutaneous) in CD8F1
Conditions: higher T/C = larger tumour
Experimental: The antitumor activity of compounds was measured in mice bearing transplantable tumors. Survival or tumor size were measured and the results are expressed as the measurement made in the treated group (T) divided by the measurement made in the vehicle treated control group (C). The tumor model used in this assay is Mammary Adenocarcinoma CD8F1 (subcutaneous) in CD8F1

[1] = T/C endpoint: median tumor weight (est.), dose: 12.5 mg/kg/injection, schedule: Q07DX005 (ip), vehicle: Klucel (hydroxypropylcellulose) (HPC), evaluation day not shown

In the case of ClCCN(CCCl)c1ccccc1, the T/C (T/C endpoint: median tumor weight (est.), dose: 0.7 mg/kg/injection, schedule: Q07DX005 (ip), vehicle: Klucel (hydroxypropylcellulose) (HPC), evaluated on day 30) is reported as 75 % of control, the T/C (T/C endpoint: median tumor weight (est.), dose: 1.5 mg/kg/injection, schedule: Q07DX005 (ip), vehicle: Klucel (hydroxypropylcellulose) (HPC), evaluated on day 30) is reported as 150 % of control and the T/C (T/C endpoint: median tumor weight (est.), dose: 3.0 mg/kg/injection, schedule: Q07DX005 (ip), vehicle: Klucel (hydroxypropylcellulose) (HPC), evaluated on day 30) is reported as 56 % of control. For the same molecule, the T/C (T/C endpoint: median tumor weight (est.), dose: 3.12 mg/kg/injection, schedule: Q07DX005 (ip), vehicle: saline with Tween-80, evaluation day not shown) was 58 % of control [survivor count not shown], the T/C (T/C endpoint: median tumor weight (est.), dose: 6.0 mg/kg/injection, schedule: Q07DX005 (ip), vehicle: Klucel (hydroxypropylcellulose) (HPC), evaluated on day 30) was 82 % of control and the T/C (T/C endpoint: median tumor weight (est.), dose: 6.25 mg/kg/injection, schedule: Q07DX005 (ip), vehicle: Klucel (hydroxypropylcellulose) (HPC), evaluated on day 30) was 79 and 100 % of control. The T/C (T/C endpoint: median tumor weight (est.), dose: 6.25 mg/kg/injection, schedule: Q07DX005 (ip), vehicle: saline with Tween-80, evaluation day not shown) was 58 [survivor count not shown] and 59 % of control [survivor count not shown], the T/C (T/C endpoint: median tumor weight (est.), dose: 12.5 mg/kg/injection, schedule: Q01DX005 (ip), vehicle: saline with Tween-80, evaluation day not shown) was 10 % of control [survivor count not shown] and the T/C (T/C endpoint: median tumor weight (est.), dose: 12.5 mg/kg/injection, schedule: Q07DX005 (ip), vehicle: Klucel (hydroxypropylcellulose) (HPC), evaluated on day 30) was 13 and 54 % of control. The T/C [1] was 48 % of control [survivor count not shown], the T/C (T/C endpoint: median tumor weight (est.), dose: 12.5 mg/kg/injection, schedule: Q07DX005 (ip), vehicle: saline with Tween-80, evaluation day not shown) was 98 % of control [survivor count not shown] and the T/C (T/C endpoint: median tumor weight (est.), dose: 15.0 mg/kg/injection, schedule: Q07DX005 (ip), vehicle: Klucel (hydroxypropylcellulose) (HPC), evaluated on day 30) was 31 and 51 % of control. For the same molecule, the T/C (T/C endpoint: median tumor weight (est.), dose: 25.0 mg/kg/injection, schedule: Q07DX005 (ip), vehicle: Klucel (hydroxypropylcellulose) (HPC), evaluated on day 30) was 2 and 18 % of control, the T/C (T/C endpoint: median tumor weight (est.), dose: 25.0 mg/kg/injection, schedule: Q07DX005 (ip), vehicle: Klucel (hydroxypropylcellulose) (HPC), evaluation day not shown) was 19 % of control [survivor count not shown] and the T/C (T/C endpoint: median tumor weight (est.), dose: 25.0 mg/kg/injection, schedule: Q07DX005 (ip), vehicle: saline with Tween-80, evaluation day not shown) was 22 % of control [survivor count not shown]. The T/C (T/C endpoint: median tumor weight (est.), dose: 30.0 mg/kg/injection, schedule: Q07DX005 (ip), vehicle: Klucel (hydroxypropylcellulose) (HPC), evaluated on day 30) was 6 and 14 % of control, the T/C (T/C endpoint: median tumor weight (est.), dose: 50.0 mg/kg/injection, schedule: Q01DX005 (ip), vehicle: saline with Tween-80, evaluation day not shown) was 1 % of control [survivor count not shown] and the T/C (T/C endpoint: median tumor weight (est.), dose: 50.0 mg/kg/injection, schedule: Q07DX005 (ip), vehicle: Klucel (hydroxypropylcellulose) (HPC), evaluated on day 30) was 9 % of control. For the same molecule, the T/C (T/C endpoint: median tumor weight (est.), dose: 50.0 mg/kg/injection, schedule: Q07DX005 (ip), vehicle: Klucel (hydroxypropylcellulose) (HPC), evaluation day not shown) was 4 % of control [survivor count not shown], the T/C (T/C endpoint: median tumor weight (est.), dose: 60.0 mg/kg/injection, schedule: Q07DX005 (ip), vehicle: Klucel (hydroxypropylcellulose) (HPC), evaluated on day 30) was 6 % of control [7 of 10 alive on day 30] and the survivor count (T/C endpoint: median tumor weight (est.), dose: 60.0 mg/kg/injection, schedule: Q07DX005 (ip), vehicle: Klucel (hydroxypropylcellulose) (HPC)) was 3 of 10 on day 30. The T/C (T/C endpoint: median tumor weight (est.), dose: 100.0 mg/kg/injection, schedule: Q01DX005 (ip), vehicle: saline with Tween-80, evaluation day not shown) was 1 % of control [survivor count not shown], the T/C (T/C endpoint: median tumor weight (est.), dose: 100.0 mg/kg/injection, schedule: Q07DX005 (ip), vehicle: Klucel (hydroxypropylcellulose) (HPC), evaluated on day 30) was 4 % of control [8 of 10 alive on day 30] and the survivor count (T/C endpoint: median tumor weight (est.), dose: 100.0 mg/kg/injection, schedule: Q07DX005 (ip), vehicle: Klucel (hydroxypropylcellulose) (HPC)) was 0 of 10 on day 30. For the same molecule, the survivor count (T/C endpoint: median tumor weight (est.), dose: 120.0 mg/kg/injection, schedule: Q07DX005 (ip), vehicle: Klucel (hydroxypropylcellulose) (HPC)) was 0 of 10 on day 30, the survivor count (T/C endpoint: median tumor weight (est.), dose: 200.0 mg/kg/injection, schedule: Q07DX005 (ip), vehicle: Klucel (hydroxypropylcellulose) (HPC)) was 0 of 10 on day 30 and the T/C (T/C endpoint: median tumor weight change, dose: 15.62 mg/kg/injection, schedule: Q01DX001 (ip), vehicle: Klucel (hydroxypropylcellulose) (HPC), evaluated on day 30) was 30 % of control. For the same molecule, the T/C (T/C endpoint: median tumor weight change, dose: 31.0 mg/kg/injection, schedule: Q01DX001 (ip), vehicle: Klucel (hydroxypropylcellulose) (HPC), evaluated on day 28) was 60 % of control, the T/C (T/C endpoint: median tumor weight change, dose: 31.25 mg/kg/injection, schedule: Q01DX001 (ip), vehicle: Klucel (hydroxypropylcellulose) (HPC), evaluated on day 30) was 17 % of control [9 of 10 alive on day 30] and the T/C (T/C endpoint: median tumor weight change, dose: 62.0 mg/kg/injection, schedule: Q01DX001 (ip), vehicle: Klucel (hydroxypropylcellulose) (HPC), evaluated on day 28) was 12 % of control. For the same molecule, the T/C (T/C endpoint: median tumor weight change, dose: 62.5 mg/kg/injection, schedule: Q01DX001 (ip), vehicle: Klucel (hydroxypropylcellulose) (HPC), evaluated on day 30) was -53 % of control [9 of 10 alive on day 30], the T/C (T/C endpoint: median tumor weight change, dose: 125.0 mg/kg/injection, schedule: Q01DX001 (ip), vehicle: Klucel (hydroxypropylcellulose) (HPC), evaluated on day 28) was -52 % of control [7 of 9 alive on day 28] and the survivor count (T/C endpoint: median tumor weight change, dose: 125.0 mg/kg/injection, schedule: Q01DX001 (ip), vehicle: Klucel (hydroxypropylcellulose) (HPC)) was 5 of 10 on day 30. The survivor count (T/C endpoint: median tumor weight change, dose: 250.0 mg/kg/injection, schedule: Q01DX001 (ip), vehicle: Klucel (hydroxypropylcellulose) (HPC)) was 0 of 10 on day 30 and 0 of 9 on day 28 and the survivor count (T/C endpoint: median tumor weight change, dose: 500.0 mg/kg/injection, schedule: Q01DX001 (ip), vehicle: Klucel (hydroxypropylcellulose) (HPC)) was 0 of 10 on day 30 and 1 of 9 on day 28.

For CC1=CC(=O)C(N(CCCl)CCCl)=CC1=O, the T/C (T/C endpoint: median tumor weight (est.), dose: 1.56 mg/kg/injection, schedule: Q07DX005 (ip), vehicle: Klucel (hydroxypropylcellulose) (HPC), evaluation day not shown) was 85 % of control [survivor count not shown], the T/C (T/C endpoint: median tumor weight (est.), dose: 3.13 mg/kg/injection, schedule: Q07DX005 (ip), vehicle: Klucel (hydroxypropylcellulose) (HPC), evaluation day not shown) was 68 % of control [survivor count not shown] and the T/C (T/C endpoint: median tumor weight (est.), dose: 6.25 mg/kg/injection, schedule: Q07DX005 (ip), vehicle: Klucel (hydroxypropylcellulose) (HPC), evaluation day not shown) was 10 [survivor count not shown] and 19 % of control [survivor count not shown]. The T/C [1] was 1 % of control [survivor count not shown], the T/C (T/C endpoint: median tumor weight change, dose: 3.75 mg/kg/injection, schedule: Q01DX001 (ip), vehicle: Klucel (hydroxypropylcellulose) (HPC), evaluated on day 34) was 143 % of control and the T/C (T/C endpoint: median tumor weight change, dose: 3.75 mg/kg/injection, schedule: Q01DX001 (ip), vehicle: Klucel (hydroxypropylcellulose) (HPC), evaluated on day 36) was 59 % of control. The T/C (T/C endpoint: median tumor weight change, dose: 7.5 mg/kg/injection, schedule: Q01DX001 (ip), vehicle: Klucel (hydroxypropylcellulose) (HPC), evaluated on day 32) was 27 % of control, the T/C (T/C endpoint: median tumor weight change, dose: 7.5 mg/kg/injection, schedule: Q01DX001 (ip), vehicle: Klucel (hydroxypropylcellulose) (HPC), evaluated on day 34) was 72 % of control and the T/C (T/C endpoint: median tumor weight change, dose: 7.5 mg/kg/injection, schedule: Q01DX001 (ip), vehicle: Klucel (hydroxypropylcellulose) (HPC), evaluated on day 36) was 36 % of control.
